Assay results taken from paper PMC11096359.
Results are given in words; binding and its absence hold for the method and conditions named. Binding seen in cells or lysates may run through a third protein. Some results given as binding are weak or reduced against the parent protein; the word gives no strength.

By UniProt entry, the sequences of proteins in these tests, tags left out. Where a name states a change or a piece, a line headed by the entry shows the natural chain unless it says otherwise. Chains listed by the source or under a name are the forms on record and can include a tag or linker.
UniProt Q14258: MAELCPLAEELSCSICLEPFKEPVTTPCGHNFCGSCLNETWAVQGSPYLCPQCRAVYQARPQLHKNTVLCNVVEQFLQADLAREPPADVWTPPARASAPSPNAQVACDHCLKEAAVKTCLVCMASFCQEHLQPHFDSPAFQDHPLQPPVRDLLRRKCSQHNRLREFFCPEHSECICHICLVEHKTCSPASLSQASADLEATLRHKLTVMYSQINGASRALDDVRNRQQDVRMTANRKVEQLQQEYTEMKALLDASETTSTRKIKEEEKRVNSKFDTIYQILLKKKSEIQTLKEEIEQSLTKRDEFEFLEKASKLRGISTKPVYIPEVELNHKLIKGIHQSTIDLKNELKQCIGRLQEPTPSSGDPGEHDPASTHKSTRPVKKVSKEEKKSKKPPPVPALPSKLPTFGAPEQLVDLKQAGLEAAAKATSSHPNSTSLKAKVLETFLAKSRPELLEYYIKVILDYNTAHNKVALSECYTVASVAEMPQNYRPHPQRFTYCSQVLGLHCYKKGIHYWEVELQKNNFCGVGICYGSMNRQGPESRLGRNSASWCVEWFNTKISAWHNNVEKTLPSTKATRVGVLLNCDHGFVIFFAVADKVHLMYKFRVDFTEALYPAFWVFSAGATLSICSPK
mCherry-TRIM25 PTFG^AAAA (Q14258, form named): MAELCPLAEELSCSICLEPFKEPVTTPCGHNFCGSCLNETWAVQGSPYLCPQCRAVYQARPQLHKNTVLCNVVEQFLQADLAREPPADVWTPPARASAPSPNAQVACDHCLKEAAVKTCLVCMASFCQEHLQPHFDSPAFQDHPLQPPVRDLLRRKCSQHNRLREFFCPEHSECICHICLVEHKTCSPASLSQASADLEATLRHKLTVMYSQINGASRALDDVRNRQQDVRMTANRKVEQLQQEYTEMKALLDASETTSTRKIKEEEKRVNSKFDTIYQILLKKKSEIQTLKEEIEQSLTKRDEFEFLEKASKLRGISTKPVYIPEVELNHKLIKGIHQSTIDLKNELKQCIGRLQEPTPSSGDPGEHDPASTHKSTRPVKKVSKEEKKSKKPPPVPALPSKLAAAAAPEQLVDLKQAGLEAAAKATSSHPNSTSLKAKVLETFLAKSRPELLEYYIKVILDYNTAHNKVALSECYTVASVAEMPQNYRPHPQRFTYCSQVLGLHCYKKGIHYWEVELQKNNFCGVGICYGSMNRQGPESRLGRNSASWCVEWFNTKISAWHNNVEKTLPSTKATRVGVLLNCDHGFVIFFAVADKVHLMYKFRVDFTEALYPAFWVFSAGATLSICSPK
mCherry-TRIM25 ΔPTFG (Q14258, form named): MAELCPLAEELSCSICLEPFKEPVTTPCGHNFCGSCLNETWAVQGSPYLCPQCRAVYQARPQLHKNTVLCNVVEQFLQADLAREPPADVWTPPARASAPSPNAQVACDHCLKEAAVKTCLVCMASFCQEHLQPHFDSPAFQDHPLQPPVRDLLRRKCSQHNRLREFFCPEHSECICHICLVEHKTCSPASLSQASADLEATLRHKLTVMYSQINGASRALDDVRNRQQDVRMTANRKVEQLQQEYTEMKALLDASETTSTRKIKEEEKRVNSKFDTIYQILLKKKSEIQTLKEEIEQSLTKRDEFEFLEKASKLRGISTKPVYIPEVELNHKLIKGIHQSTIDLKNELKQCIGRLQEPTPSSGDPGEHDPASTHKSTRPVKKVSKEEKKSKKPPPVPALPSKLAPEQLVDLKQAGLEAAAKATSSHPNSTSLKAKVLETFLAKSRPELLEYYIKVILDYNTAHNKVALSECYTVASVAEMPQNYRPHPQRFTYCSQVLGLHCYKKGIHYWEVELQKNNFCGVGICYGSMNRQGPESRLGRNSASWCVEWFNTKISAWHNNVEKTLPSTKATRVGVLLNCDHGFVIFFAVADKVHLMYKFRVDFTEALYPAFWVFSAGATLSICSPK
UniProt Q13283: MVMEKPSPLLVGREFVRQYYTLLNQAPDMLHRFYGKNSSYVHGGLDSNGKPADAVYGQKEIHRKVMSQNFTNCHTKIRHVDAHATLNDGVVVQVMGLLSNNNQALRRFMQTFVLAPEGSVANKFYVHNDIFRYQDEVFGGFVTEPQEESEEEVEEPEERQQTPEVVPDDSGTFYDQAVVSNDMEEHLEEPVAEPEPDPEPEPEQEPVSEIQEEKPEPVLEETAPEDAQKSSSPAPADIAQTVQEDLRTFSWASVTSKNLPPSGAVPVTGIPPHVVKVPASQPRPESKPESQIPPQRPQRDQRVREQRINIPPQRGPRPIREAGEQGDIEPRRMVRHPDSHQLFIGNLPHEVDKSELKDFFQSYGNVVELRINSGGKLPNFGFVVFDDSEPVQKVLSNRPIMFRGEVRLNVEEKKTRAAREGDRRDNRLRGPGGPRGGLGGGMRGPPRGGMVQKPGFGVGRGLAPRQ

Assays:
[1] = biological target: endogenous TRIM25 (human (endogenous in HEK293T)) (UniProt Q14258); test: co-IP; endogenous proteins, precipitated with an antibody against TRIM25; with or without poly(I:C)
[2] = biological target: mCherry-TRIM25 FL (human) (UniProt Q14258); test: co-IP; HEK293T transfected with mCherry-TRIM25 FL or mutants for 24 h; lysates precipitated with mCherry beads, immunoblot
[3] = biological target: mCherry-TRIM25 PTFG^AAAA (human) (UniProt Q14258); test: as above
[4] = biological target: mCherry-TRIM25 ΔPTFG (human) (UniProt Q14258); test: as above

How did the binding [1] turn out when “endogenous G3BP1 (from UniProt Q13283 1-466)” was run?
Its binding is “binds”.

And the binding [2]?
Its binding is “binds”.

And the binding [3]?
Its binding is “no binding”.

What about the binding [4] of the same substance?
The binding was “no binding”.
